## Primary screen of a compound library

Source: ChEMBL document CHEMBL3988442, “University of Dundee, Small-Polar-MMV Screening Library” (2021).

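Whole-parasite assay of Trypanosoma brucei over 72 hours; the read-out is not stated. Compounds at 30 µM. Direction is inferred from retests: higher values go with stronger inhibition. Values scatter widely below zero; nearly all retest evidence comes from the higher of the two concentrations used. Of about 64,000 compounds tested this way, about 940 (1.5%) reached 50% or more in at least one test.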

Each number is a percent effect as filed.
The record does not define 0% and 100%; most values in the screen are far below 50% and negative numbers occur (in some assays of this library far below -100).
The compounds are a random part of those screened.

| # | structure | percent effect |
|---|---|---|
| 1 | `COCCNc1ccc(CC2CCCN(c3ncccn3)C2)nn1` (stereo not given) | -14.1% |
| 2 | `[H][C@@]12CCN(Cc3cc(C)on3)C[C@@]1([H])O[C@@H](c1nnc(C)[nH]1)C2` | -15.67% |
| 3 | `O=C(O)C(F)(F)F.O=C(O)C(F)(F)F.O=C1CC2(CCN(CC3CC3)C2)CN1c1cccnc1` (stereo not given) | -37.26% |
| 4 | `[H][C@@]12CCNC[C@]1([H])N(C(=O)C1CCCC1)C2` | -22.21% |
| 5 | `C[C@@H]1CN(C(=O)CCCN2CCOCC2)C[C@@]1(O)C1CC1` | -2.586% |
| 6 | `Cc1nccn1CCN(C)C(=O)c1cn(CC2CCCCC2)nn1` | -24.98% |
| 7 | `COCC1CN(C(=O)c2ccoc2)Cc2cnn(CC3CCOCC3)c21.O=C(O)C(F)(F)F` (stereo not given) | -46.76% |
| 8 | `CC1CCN(S(=O)(=O)N2CCc3c(c(C(=O)O)nn3CC3CC3)C2)CC1` | -45.81% |
| 9 | `Oc1cc(-c2ccccn2)nc(C2CCN(Cc3ccncc3)CC2)n1` | -32.25% |
| 10 | `COCCc1noc(CNC2CCCC(C)(C)C2)n1` (stereo not given) | 42.69% |
| 11 | `CC1=Nc2c(c(=O)[nH]n2C2CCCC2)C(c2ccc(O)cc2)S1` (stereo not given) | -3.6% |
| 12 | `C[C@@H]1CN(Cc2cc3ccccc3n2C)CC[C@@]1(O)C1CC1` | -46.28% |
| 13 | `CN(C)C(=O)c1ccccc1NC(=O)N(C)Cc1ccccc1O` | -38.92% |
| 14 | `Cc1cccc(C2(CNC(=O)CCNS(C)(=O)=O)CCCC2)c1` | 20.92% |
| 15 | `CC(=O)N1Cc2nc(C(=O)NCCc3cccnc3)oc2C1` | -13.15% |
| 16 | `CCN(CC)C(=O)c1nnn(Cc2ccccc2)c1OC` | 61.55% |
| 17 | `Cc1csc(C2CCCN(C(=O)c3c[nH]c(C)n3)C2)n1` (stereo not given) | -26.21% |
| 18 | `Cc1nc(C)n(CC2CCCN2Cc2cc(-c3cccs3)on2)n1` (stereo not given) | 12.96% |
| 19 | `COc1cccc(N2CCN(Cc3ccc4occc4c3)CC2=O)c1` | -18.63% |
| 20 | `CC(C)=CCN1CC2(CCN(Cc3cccc(C#N)c3)CC2)CC1=O` | -22.76% |
| 21 | `Cn1ccc(C(=O)NC2CCC23CCN(Cc2cnn(C)c2)CC3)c1.O=C(O)C(F)(F)F` (stereo not given) | -26.08% |
| 22 | `CCCN1CCCC1c1ccc(C(=O)N2CCOCC2)s1` (stereo not given) | -362% |
| 23 | `COCc1ccc(C(=O)N2CCC(Oc3ccccc3OC)CC2)s1` | -33.56% |
| 24 | `COc1cc2c(cc1CCC(=O)O)CCC2` | 2.719% |
| 25 | `Cn1ccc2cc(C(=O)Nc3nc[nH]n3)ccc21` | -17.48% |
| 26 | `Cc1nc(CN(Cc2ccncc2)C2CCN(C)CC2)cs1` | -6.855% |
| 27 | `[H][C@]12C[C@@H](Cn3cccn3)N(C)[C@@]1([H])CCN(C(=O)Cc1cccs1)C2` | -29.03% |
| 28 | `F[C@@H]1CN(CC2CC2)C[C@@H]1OCc1nc2ccccc2o1` | -4.622% |
| 29 | `O=C(O)C(F)(F)F.O=C(O)C(F)(F)F.[H][C@@]12CC(=O)N(Cc3cccc(C)n3)[C@@]1([H])CCN2Cc1ccc(CC)o1` | -71.29% |
| 30 | `N#CCCN1CCN(S(=O)(=O)c2ccc(Cl)s2)CC1` | -54.69% |
| 31 | `O=C(Cn1cc(-c2ccccc2)ncc1=O)Nc1nnc[nH]1` | 33.48% |
| 32 | `Cc1cc(C2CCCCN2C(=O)c2ccsc2)nc2nccn12` (stereo not given) | -0.03447% |
| 33 | `CCc1cnc(C(C)NC(=O)N2CCCN(CC(F)F)CC2)s1` (stereo not given) | -4.027% |
| 34 | `CCOc1ncccc1NC(=O)c1ccc(C(C)=O)s1` | -12.71% |
| 35 | `O=C(c1ccccn1)N1CCCC(c2ncncc2-c2ccncc2)C1` (stereo not given) | 3.016% |
| 36 | `CC(=O)c1ccc(S(=O)(=O)N2CCOC(Cn3ccnc3)C2)cc1` (stereo not given) | -13.55% |
| 37 | `Cc1n[nH]cc1CNc1ccc2c(c1)CN(C(=O)OC(C)(C)C)CC2` | 13.97% |
| 38 | `CNS(=O)(=O)c1cccc(C(C)NCc2ccc(F)c(F)c2)c1` (stereo not given) | -18.63% |
| 39 | `CCCc1cc(C(=O)N(C)Cc2ccc(OC)c3ncccc23)n(C)n1` | -42.97% |
| 40 | `CO[C@H]1CN(Cc2ccc(F)c(F)c2)C[C@@]12CCCO2` | 9.754% |
| 41 | `CC(C)N1CCCC2(CCN(Cc3noc(C4CCCC4)n3)C2)C1=O` (stereo not given) | -48.18% |
| 42 | `NC(=O)CN1CCC(C(=O)NCC(O)c2cccc(F)c2)CC1` (stereo not given) | -51.83% |
| 43 | `COc1cccc(OCC2CCCN(c3cc(C(N)=O)ccn3)C2)c1` (stereo not given) | -41.28% |
| 44 | `[H][C@]12CC[C@]([H])(CC(=O)NC1)N2C1CCOCC1` | 1.131% |
| 45 | `COc1ccc(COCC(O)CNC(=O)c2cc(C)cc(C)c2)cc1` (stereo not given) | 28.55% |
| 46 | `CC1=C[C@@H](CN2CCN(C)CC2)[C@H](C(C)C)C[C@H]1Cc1nnc(C)o1` | 28.22% |
| 47 | `Cc1cccc2nc(CN3CCCC(C)C3)cc(=O)n12` (stereo not given) | -34.72% |
| 48 | `CCOc1ccc(C(=O)N2Cc3cnc(CC)nc3C2)o1` | 7.196% |
| 49 | `CN(Cc1cccc(F)c1)Cc1nc2c(cnn2C)c(=O)[nH]1` | -29.55% |
| 50 | `CCC(Nc1nc(C(C)C)nc2c1cnn2C)c1ccc(O)cc1` (stereo not given) | -3.954% |
| 51 | `CC(=O)N1CCC2(CCN(S(=O)(=O)c3ccccc3)CC2)C1` | -14.79% |
| 52 | `Cc1ncsc1C(=O)NCc1ccc(-c2n[nH]cc2C(=O)N(C)C)cc1` | 1.98% |
| 53 | `COCCCN1CC2(CCCCN2C(C)=O)CC1=O` (stereo not given) | -43.34% |
| 54 | `O=C(NCC(O)c1cccs1)c1ccco1` (stereo not given) | -21.05% |
| 55 | `Cn1cnc2c1C(COCC1CCOCC1)CN(C(=O)c1ccoc1)C2` (stereo not given) | -1.023% |
| 56 | `Cc1ccc(C(=O)N2Cc3c(CN4CCCCC4)nn(C)c3C2)cc1F.O=C(O)C(F)(F)F` | -6.597% |
| 57 | `Cc1cnn(CC2CCCN2Cc2cn3ccsc3n2)c1` (stereo not given) | 12.52% |
| 58 | `Cc1cccc(-c2noc([C@@H]3C[C@@H](O)CN3C)n2)c1` | -21.39% |
| 59 | `COc1ccccc1CC1CCCN(C(=O)c2n[nH]c3c2CCC3)C1` (stereo not given) | 8.41% |
| 60 | `CC(C(=O)N1CCN(c2ncccn2)CC1)n1cncn1` (stereo not given) | -15.68% |
| 61 | `C/N=C1/c2cc3cc(OC)ccc3n2CCN1Cc1ccccc1.Cl` | 62.06% |
| 62 | `CCN(C)CC(C)Cn1cnc(-c2ccccc2)c1C` (stereo not given) | -8.267% |
| 63 | `O=C(CCc1cc2n(n1)CCCNC2)N1CCSCC1` | -3.475% |
| 64 | `CCN(C(=O)CN(C)C(c1cccc(F)c1)c1ccccn1)C1CC1` (stereo not given) | 9.169% |
| 65 | `[H][C@@]12CN(Cc3nccn3C)C(=O)N1CCN(S(C)(=O)=O)C2` | -20.35% |
| 66 | `COC(=O)CCNC(=O)c1nnn(-c2ccc(C)cc2)c1C1CC1` | -5.76% |
| 67 | `Cc1nccc(NCc2cncc3c2CCN(CC2CCOC2)C3)n1.Cl.Cl` (stereo not given) | -74.45% |
| 68 | `CCC(=O)NCC(=O)NCC(C)(C)c1cccc(Br)c1` | -4.09% |
| 69 | `CN(C)c1cc(C(=O)Nc2ccccc2C(=O)NC(C)(C)C)ccn1` | -24.32% |
| 70 | `CC(NCc1cnc(C2CCC2)s1)c1ccc(-n2cncn2)cc1` (stereo not given) | 28.26% |
| 71 | `CN(Cc1noc(C2CC2)n1)C1CCN(CCS(C)(=O)=O)C1` (stereo not given) | -9.705% |
| 72 | `O=C(Cc1ccccc1Cl)N1CCCC(n2cncn2)C1` (stereo not given) | -13.19% |
| 73 | `[H][C@@]12COC[C@]1(COc1ccc(C#N)cn1)CN(Cc1nccs1)C2` | -10.05% |
| 74 | `CNc1cc(C)nc(NCc2cc(C)cc3c(C)c(C)[nH]c23)n1` | -26.56% |
| 75 | `CC(C)OCCN1CCC(Nc2nccnc2C#N)CC1` | -13.02% |
| 76 | `O=C(c1ccsc1)N1CCc2c(nc(-c3ccncc3)[nH]c2=O)C1` | 4.285% |
| 77 | `CSc1nc(N)c2c(n1)N=C1COC(O)=C1C2c1cccc(Cl)c1` (stereo not given) | -11.42% |
| 78 | `CCc1ncc(C(=O)N2CCCOC(Cn3cccn3)C2)cn1` (stereo not given) | -1.512% |

Once more, the final 4:

| structure | percent effect |
|---|---|
| `CC(C)OCCN1CCC(Nc2nccnc2C#N)CC1` | -13.02% |
| `O=C(c1ccsc1)N1CCc2c(nc(-c3ccncc3)[nH]c2=O)C1` | 4.285% |
| `CSc1nc(N)c2c(n1)N=C1COC(O)=C1C2c1cccc(Cl)c1` (stereo not given) | -11.42% |
| `CCc1ncc(C(=O)N2CCCOC(Cn3cccn3)C2)cn1` (stereo not given) | -1.512% |